According to US20190169301A1 (Boehringer Ingelheim, published 2019):
Changes are numbered by the printed parent chain. No constants are given. Whether binding was seen depends on the method and setting. Some binding calls cover weakened binding; strength is not graded here.

Experiments:
human CD40-Fc protein = target: T1, human CD40-Fc protein (human, UniProt P25942 21-193); assay: ForteBio Octet, CD40-Fc, absence and presence of 50% human serum
T1 construct: also called recombinant CD40 protein; not shown: Fc part

[1] = target: cynomolgus monkey CD40 on cells (B cells, platelets) (cynomolgus monkey) (UniProt G7PG38); assay: flow cytometry, directly labeled antibody, B cells and platelets in cynomolgus monkey whole blood
[2] = target: human CD40 on cells (CD40-transfected HEK293 cells, Ramos cells, human B cells, human platelets) (human) (UniProt P25942); assay: flow cytometry, directly labeled antibody, B cells and platelets in human whole blood
[3] = target: human CD40 on cells (CD40-transfected HEK293 cells, Ramos cells, human B cells, human platelets) (human) (UniProt P25942); assay: flow cytometry, human Ramos cells
[4] = target: human CD40 on cells (CD40-transfected HEK293 cells, Ramos cells, human B cells, human platelets) (human) (UniProt P25942); assay: flow cytometry (MFI) on CD40-transfected HEK cells
[5] = target: human CD40 on cells (CD40-transfected HEK293 cells, Ramos cells, human B cells, human platelets) (human) (UniProt P25942); assay: flow cytometry, human CD40-transfected HEK293 cells
[6] = target: cynomolgus monkey CD40 on cells (B cells, platelets) (cynomolgus monkey) (UniProt G7PG38); assay: flow cytometry, FITC-labeled antibody, cynomolgus platelets

B1: Antibody A (IgG1KO) (antibody, V domains shown)
VH: EVQLVESGGGLVKPGGSLRLSCAASGFTFSDYGMHWVRQAPGKGLEWVAYISSGNRIIYYADTVKGRFTISRDNAKNSLYLQMNSLRAEDTALYYCARQDGYRYAMDYWAQGTLVTVSS
VL: DIVMTQSPDSLAVSLGERATMSCKSSQSLLNSGNQKNYLTWHQQKPGQPPKLLIYWTSTRESGVPDRFSGSGSGTDFTLTISSLQAEDVAVYYCQNDYTYPLTFGGGTKVEIKR
notes: also called 20E2-12
For B1, the binding (human CD40-Fc protein) was “binds”.

B2: Antibody B (IgG1KO) (antibody, V domains shown)
VH: B1 VH with L93V, A110G
VL: B1 VL with R18K, A19V, M21I, S22N
With B2 the binding [1] was “binds”, the binding (human CD40-Fc protein) was “binds” and the binding [2] was “binds”. For the same binder, the binding [3] was “binds”, the binding [4] was “binds” and the binding [5] was “binds”.

B3: Antibody C (IgG1KO) (antibody, V domains shown)
VH: QVQLVQSGAEVKKPGASVKVSCTASGFNIKDYYVHWVKQAPGQGLEWMGRIDPEDGDSKYAPKFQGKATMTADTSTSTVYMELSSLRSEDTAVYYCTTSYYVGTYGYWGQGTLVTVSS
VL: DIQMTQSPSSLSASVGDRVTITCSASSSVSYMLWFQQKPGKAPKLLIYSTSNLASGVPSRFSGSGSGTDFTLTISSLQPEDFATYYCQQRTFYPYTFGGGTKVEIKR
notes: also called 2H11-159-94
For B3, the binding (human CD40-Fc protein) was “binds”.

B4: 2H11 (murine anti-human CD40 antibody) (antibody, V domains shown)
VH: EVQLQQSGAELVRPGASVKLSCTASGFNIKDYYVHWVKQRPEKGLEWIGRIDPEDGDSKYAPKFQGKATMTADTSSNTAYLHLSSLTSEDTAVYYCTTSYYVGTYGYWGQGTTLTVSS
VL: QIVLTQSPAIMSASPGEKVTITCSASSSVSYMLWFQQKPGTSPKLWIYSTSNLASGVPARFGGSGSGTSYSLTISRMEAEDAATYYCQQRTFYPYTFGGGTKLEIK
notes: Mouse monoclonal antibody
With B4 the binding [6] was “binds”.
